The other results are listed elsewhere or left out.
What follows are sequences tested against T1, OsSMF1 (Oryza sativa, UniProt Q6ZLB0 1-436) (assay: protein-binding microarray (RPBM); PBS, 2% BSA, 51.3 ng/ul salmon testes DNA, 50 uM zinc acetate, 200 nM TF, 25 C, 1 h; high values mean tight binding). Conditions: protein: recombinant; tags: N-terminal polyhistidine and DsRed monomer fusion (pET32a); chain copies: 2; label: CyDye5-dUTP incorporated in the synthesized complementary strand; 3' TTTTT single-stranded linker to array surface; dsDNA, one strand shown.
T1 sequence: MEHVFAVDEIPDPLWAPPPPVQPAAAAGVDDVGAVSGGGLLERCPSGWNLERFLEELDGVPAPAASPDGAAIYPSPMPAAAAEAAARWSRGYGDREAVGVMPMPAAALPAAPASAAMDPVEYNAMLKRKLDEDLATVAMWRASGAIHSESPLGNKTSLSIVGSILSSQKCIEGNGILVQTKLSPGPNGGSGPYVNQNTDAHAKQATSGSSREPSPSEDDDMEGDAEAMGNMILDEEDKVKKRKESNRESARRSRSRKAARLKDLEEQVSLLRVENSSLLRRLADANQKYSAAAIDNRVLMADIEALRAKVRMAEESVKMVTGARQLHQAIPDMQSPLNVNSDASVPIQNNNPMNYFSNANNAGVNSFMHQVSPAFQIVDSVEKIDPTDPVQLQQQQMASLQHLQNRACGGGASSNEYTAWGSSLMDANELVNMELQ
Summary of the method: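 Transcription factors were made in E. coli BL21-CodonPlus as N-terminal fusions to a polyhistidine tag and DsRed, then purified on Ni–NTA. After primer extension with Cy5-dUTP and blocking with 2% BSA, a custom Agilent array was exposed for 1 h at 25 °C to 200 nM protein in PBS, 2% BSA, salmon testes DNA and 50 µM zinc acetate. Washed arrays were scanned on an Axon 4000B, and the binding signal is per-feature fluorescence intensity in arbitrary units.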

Sequence	binding signal
GTACCGAACACAGCCACGTAATCATGCAGGTTGCAGCCACCGGAGTCACCTAGTGCAG	10700 fluorescence intensity (a.u.)
TGCAACGGCGTCACCACAAATATCCATCCATGCTCGTCATCGGAGTCACCTAGTGCAG	4760 fluorescence intensity (a.u.)
CCCGTAGTCCATATCAGCATGACGTGATCATGAAGCAGGCCGGAGTCACCTAGTGCAG	13600 fluorescence intensity (a.u.)
GGGAGTTGGGAGTTGGGACTCCCTGTGCCTCTCCTCTCCACGGAGTCACCTAGTGCAG	19600 fluorescence intensity (a.u.)
TTACAGTAGTTGAGACAACAAATACTCTAATCATTAACTCCGGAGTCACCTAGTGCAG	27900 fluorescence intensity (a.u.)
AAAGATTGAGGGGAAGGGTGATAGGTGGGCCCCACGTGGGCGGAGTCACCTAGTGCAG	7630 fluorescence intensity (a.u.)
ACTGAGATGGGAAAGTGTTAGTCACATTGCCTGCCTATGTCGGAGTCACCTAGTGCAG	3430 fluorescence intensity (a.u.)
ATTTTCTTGTTTTACGTGTGACTTAATCTTCAATTTCATCCGGAGTCACCTAGTGCAG	3430 fluorescence intensity (a.u.)
CTTGTATGATTGTATCCCCTGACATGGCACCACACGCAGTCGGAGTCACCTAGTGCAG	8140 fluorescence intensity (a.u.)
CTTGGCGCCACGTGCGCGGTGCCGCGGTGTGCGCGGCCGACGGAGTCACCTAGTGCAG	7180 fluorescence intensity (a.u.)
TGGGGTTATGGCTATATGGGCCGTCGTTGCGCTGACAGGACGGAGTCACCTAGTGCAG	4030 fluorescence intensity (a.u.)
CCCGTCTCGCCTCCTCCGCAAGTGACGTCGACGCCTCATCCGGAGTCACCTAGTGCAG	7820 fluorescence intensity (a.u.)
TCGCGTGCTCGCGTCACGAGCTGCTGAAATACCTCGCTTTCGGAGTCACCTAGTGCAG	4530 fluorescence intensity (a.u.)
GGCGTTGTTGTGTATGGGCTGTAATGTTAGTGGGCTGACACGGAGTCACCTAGTGCAG	3350 fluorescence intensity (a.u.)
GAAGATCAATGATTCACTGTTTACTCGGCTTCTTCGCTGTCGGAGTCACCTAGTGCAG	5850 fluorescence intensity (a.u.)
GCCGCCTGGAATAAAAGGCGCACAGGGCTTTGGGAGTTTGCGGAGTCACCTAGTGCAG	3950 fluorescence intensity (a.u.)
CCGCGCCTCTCCTCGCCTCCGCCTCCGTGCGCGGCTGCCGCGGAGTCACCTAGTGCAG	3690 fluorescence intensity (a.u.)
CTTCCCCACCACGGACACCGTCACCACGCGCCCGCTCCGCCGGAGTCACCTAGTGCAG	4160 fluorescence intensity (a.u.)
TTTTGGATCAATGACGAGGTGGATGCAGTGACAAAGCAGTCGGAGTCACCTAGTGCAG	5640 fluorescence intensity (a.u.)
ATGTCTCTCGCAGTCGCTGTCAGTCTGTCTTGTGTCCGCACGGAGTCACCTAGTGCAG	3220 fluorescence intensity (a.u.)
ACCAAACATTACCTAATGCAATCGAACTATCGAAGACATGCGGAGTCACCTAGTGCAG	3700 fluorescence intensity (a.u.)

Sequence	binding signal
TACGGACCACCTGGGTTTGTCATGGGGTTTACTCCCATCCCGGAGTCACCTAGTGCAG	23400 fluorescence intensity (a.u.)
GGCAATCCCGCCACGTAAGCACCGGCCGTTATAACGGCATCGGAGTCACCTAGTGCAG	8070 fluorescence intensity (a.u.)
CTTGCCGTCGAAGCGAAGGAACCGCCACCCGACGTCAGCTCGGAGTCACCTAGTGCAG	5050 fluorescence intensity (a.u.)
GCAGCAGAAATGGCAGCAAGGGTCGTACGTGGATGTGTCCCGGAGTCACCTAGTGCAG	4980 fluorescence intensity (a.u.)
GACGGCCCAGCCCATGGCATGGCGCTTTGGCACGGCCCAGCGGAGTCACCTAGTGCAG	3960 fluorescence intensity (a.u.)
CCACACCAGGGCCTTGTACTCGATGCATCACCCTTGGAAACGGAGTCACCTAGTGCAG	4610 fluorescence intensity (a.u.)
GGTAATGATGTGGCGAATGATGACATCACACAAAATGATACGGAGTCACCTAGTGCAG	6760 fluorescence intensity (a.u.)
GTAGTTCCACGTGTCCTTCTTCTCCATGTCACGCCGGCTGCGGAGTCACCTAGTGCAG	22600 fluorescence intensity (a.u.)
CTAGTCTTGGTCAGCGTCGCCGCGCCCCATACGTGTGGGCCGGAGTCACCTAGTGCAG	3330 fluorescence intensity (a.u.)
ACCATTGTTCAGTGAGGCAGAAAACCTGTCACCGCTCGCACGGAGTCACCTAGTGCAG	3780 fluorescence intensity (a.u.)
TGGACAGTGATGTGGCATCAGAAGTTCAGAACTCTCAAGTCGGAGTCACCTAGTGCAG	5900 fluorescence intensity (a.u.)
ATTTCATCCTTATTAGGGCCTATTTGGAGCATTGGCAGGGCGGAGTCACCTAGTGCAG	3750 fluorescence intensity (a.u.)
CTGTGGTGGTGTGCATACGGGTTGGGGTGGAGGGCTGCTCCGGAGTCACCTAGTGCAG	4220 fluorescence intensity (a.u.)
CTATTAAGTTGACTGTAAATAATTTGGAGCCAGCAGTTTGCGGAGTCACCTAGTGCAG	3400 fluorescence intensity (a.u.)
CGTACACACACATCACTGCTGATGAATCAACCCAACCTCGCGGAGTCACCTAGTGCAG	3490 fluorescence intensity (a.u.)
TTGGTGACAATAGAGAAAGTTGAGTACGTGTGATGCTCAGCGGAGTCACCTAGTGCAG	4990 fluorescence intensity (a.u.)
TATACGTGTTGACATGGCGGGGAGTGGCTCGTCTCCCGTCCGGAGTCACCTAGTGCAG	6110 fluorescence intensity (a.u.)
TTGAGTAGGCAACGGAGGTCAGGGACGTGGACTCCCGCGTCGGAGTCACCTAGTGCAG	4810 fluorescence intensity (a.u.)
GCAGCGGCGTCAGCTGCGCGTGCCCCGCCTCCGACGCTATCGGAGTCACCTAGTGCAG	3630 fluorescence intensity (a.u.)
CTCTCTTCCTCTCTCTCTCCTCCGCGTAGGATTTAGCCTGCGGAGTCACCTAGTGCAG	3880 fluorescence intensity (a.u.)
TATGGTTCTAAGCATGACTAGGACTGATGCAGCACAAAGTCGGAGTCACCTAGTGCAG	6870 fluorescence intensity (a.u.)

A different layout for part of the listing above.
Sequence,binding signal
CTGTGGTGGTGTGCATACGGGTTGGGGTGGAGGGCTGCTCCGGAGTCACCTAGTGCAG,4220 fluorescence intensity (a.u.)
CTATTAAGTTGACTGTAAATAATTTGGAGCCAGCAGTTTGCGGAGTCACCTAGTGCAG,3400 fluorescence intensity (a.u.)
CGTACACACACATCACTGCTGATGAATCAACCCAACCTCGCGGAGTCACCTAGTGCAG,3490 fluorescence intensity (a.u.)
TTGGTGACAATAGAGAAAGTTGAGTACGTGTGATGCTCAGCGGAGTCACCTAGTGCAG,4990 fluorescence intensity (a.u.)
TATACGTGTTGACATGGCGGGGAGTGGCTCGTCTCCCGTCCGGAGTCACCTAGTGCAG,6110 fluorescence intensity (a.u.)
TTGAGTAGGCAACGGAGGTCAGGGACGTGGACTCCCGCGTCGGAGTCACCTAGTGCAG,4810 fluorescence intensity (a.u.)
GCAGCGGCGTCAGCTGCGCGTGCCCCGCCTCCGACGCTATCGGAGTCACCTAGTGCAG,3630 fluorescence intensity (a.u.)

Reference: PMC7819943, “Rice protein-binding microarrays: a tool to detect cis-acting elements near promoter regions in rice”
